Test results as given in the supplement of paper PMC12823440, “Inhibitors supercharge kinase turnover through native proteolytic circuits” (Nature, 2025).
Structures can show the parent of a compound that is named as a salt. Some of the results follow. The calls rarely recur for the same compound in another form.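 Kinases were expressed as nanoluciferase fusions in K562 cells and luminescence was read every 4 h between 2 and 18 h as percent of control, DMSO set to 100% and a positive control to 0%. A time point counts as decreased when the signal drops significantly (2 sigma). The hit call is the authors' own, does not follow from the count of time points alone, and its rule is not shown.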

By UniProt entry, the sequences of proteins in these tests, tags left out. Where a name states a change or a piece, a line headed by the entry shows the natural chain unless it says otherwise.
UniProt Q9Y616: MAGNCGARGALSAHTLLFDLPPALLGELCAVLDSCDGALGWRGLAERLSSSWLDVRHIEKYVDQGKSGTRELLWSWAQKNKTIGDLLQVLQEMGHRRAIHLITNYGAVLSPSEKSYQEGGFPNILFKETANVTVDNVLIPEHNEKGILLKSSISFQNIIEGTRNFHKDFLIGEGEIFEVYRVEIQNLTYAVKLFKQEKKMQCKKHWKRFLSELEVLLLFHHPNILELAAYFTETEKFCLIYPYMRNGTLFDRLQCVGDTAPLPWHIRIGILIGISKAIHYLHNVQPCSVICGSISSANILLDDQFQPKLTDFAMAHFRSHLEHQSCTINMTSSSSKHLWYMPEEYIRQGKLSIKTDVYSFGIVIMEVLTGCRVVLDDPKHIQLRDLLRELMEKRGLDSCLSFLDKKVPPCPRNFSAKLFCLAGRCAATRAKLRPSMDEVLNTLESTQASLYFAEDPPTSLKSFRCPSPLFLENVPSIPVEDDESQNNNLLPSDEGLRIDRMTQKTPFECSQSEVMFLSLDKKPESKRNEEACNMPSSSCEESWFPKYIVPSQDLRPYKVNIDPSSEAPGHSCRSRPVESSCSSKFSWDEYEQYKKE
UniProt P23458: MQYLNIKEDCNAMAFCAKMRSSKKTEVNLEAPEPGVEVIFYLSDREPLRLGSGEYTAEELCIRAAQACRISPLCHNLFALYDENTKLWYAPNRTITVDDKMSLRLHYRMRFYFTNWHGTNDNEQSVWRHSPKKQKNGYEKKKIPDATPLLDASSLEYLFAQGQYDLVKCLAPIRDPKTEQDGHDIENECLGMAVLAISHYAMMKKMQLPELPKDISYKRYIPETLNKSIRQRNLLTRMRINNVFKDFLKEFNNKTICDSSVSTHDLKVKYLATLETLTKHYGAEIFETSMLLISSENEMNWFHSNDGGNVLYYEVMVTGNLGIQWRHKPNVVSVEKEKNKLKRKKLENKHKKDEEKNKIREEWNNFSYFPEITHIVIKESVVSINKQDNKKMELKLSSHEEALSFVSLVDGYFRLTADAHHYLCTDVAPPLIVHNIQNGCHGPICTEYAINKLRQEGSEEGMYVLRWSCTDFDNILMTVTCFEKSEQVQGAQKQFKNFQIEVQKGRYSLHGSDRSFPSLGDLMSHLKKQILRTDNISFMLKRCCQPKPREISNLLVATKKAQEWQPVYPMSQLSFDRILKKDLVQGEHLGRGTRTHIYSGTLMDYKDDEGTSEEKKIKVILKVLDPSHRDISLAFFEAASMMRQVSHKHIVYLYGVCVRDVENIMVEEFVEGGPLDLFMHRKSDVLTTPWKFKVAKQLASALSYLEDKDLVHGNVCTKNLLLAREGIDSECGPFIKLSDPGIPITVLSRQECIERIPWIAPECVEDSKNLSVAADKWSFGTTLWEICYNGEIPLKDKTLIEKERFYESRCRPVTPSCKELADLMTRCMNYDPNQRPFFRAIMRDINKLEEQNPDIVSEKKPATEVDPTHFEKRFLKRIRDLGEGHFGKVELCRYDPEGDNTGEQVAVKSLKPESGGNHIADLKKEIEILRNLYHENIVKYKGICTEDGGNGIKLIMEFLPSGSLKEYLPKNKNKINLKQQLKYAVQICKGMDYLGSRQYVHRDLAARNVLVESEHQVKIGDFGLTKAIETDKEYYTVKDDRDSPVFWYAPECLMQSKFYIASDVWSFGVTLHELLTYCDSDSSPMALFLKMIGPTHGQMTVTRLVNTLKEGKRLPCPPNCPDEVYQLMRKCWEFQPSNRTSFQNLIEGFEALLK
UniProt P06239: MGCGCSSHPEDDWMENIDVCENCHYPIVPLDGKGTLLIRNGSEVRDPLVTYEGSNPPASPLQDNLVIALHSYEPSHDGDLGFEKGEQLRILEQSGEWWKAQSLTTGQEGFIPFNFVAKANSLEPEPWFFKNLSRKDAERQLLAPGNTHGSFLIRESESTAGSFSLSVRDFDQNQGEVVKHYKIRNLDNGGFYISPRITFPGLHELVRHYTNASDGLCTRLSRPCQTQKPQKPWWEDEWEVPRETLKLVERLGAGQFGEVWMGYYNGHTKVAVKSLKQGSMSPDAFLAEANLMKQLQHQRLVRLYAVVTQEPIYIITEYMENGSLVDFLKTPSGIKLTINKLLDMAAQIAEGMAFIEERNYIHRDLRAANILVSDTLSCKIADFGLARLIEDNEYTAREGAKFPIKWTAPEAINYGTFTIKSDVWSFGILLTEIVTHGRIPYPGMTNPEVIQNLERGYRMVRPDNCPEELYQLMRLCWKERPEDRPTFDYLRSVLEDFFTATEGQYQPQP
UniProt P53667: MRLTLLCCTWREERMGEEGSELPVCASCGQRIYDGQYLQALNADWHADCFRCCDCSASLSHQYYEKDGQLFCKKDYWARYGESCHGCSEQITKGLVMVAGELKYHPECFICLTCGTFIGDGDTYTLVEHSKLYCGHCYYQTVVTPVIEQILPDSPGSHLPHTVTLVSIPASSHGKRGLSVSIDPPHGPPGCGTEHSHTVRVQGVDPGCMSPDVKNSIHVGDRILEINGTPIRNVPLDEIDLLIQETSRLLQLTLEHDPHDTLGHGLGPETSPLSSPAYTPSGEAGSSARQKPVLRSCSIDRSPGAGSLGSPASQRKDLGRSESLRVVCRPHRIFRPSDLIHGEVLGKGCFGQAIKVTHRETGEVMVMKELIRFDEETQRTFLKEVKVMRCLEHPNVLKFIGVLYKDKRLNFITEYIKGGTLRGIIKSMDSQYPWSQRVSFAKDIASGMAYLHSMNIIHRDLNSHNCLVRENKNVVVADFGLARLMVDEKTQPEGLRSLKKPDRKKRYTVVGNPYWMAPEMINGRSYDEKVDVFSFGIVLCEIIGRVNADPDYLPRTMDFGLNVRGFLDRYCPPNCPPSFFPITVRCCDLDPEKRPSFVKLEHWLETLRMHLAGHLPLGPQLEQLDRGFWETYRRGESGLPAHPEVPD
UniProt P53671: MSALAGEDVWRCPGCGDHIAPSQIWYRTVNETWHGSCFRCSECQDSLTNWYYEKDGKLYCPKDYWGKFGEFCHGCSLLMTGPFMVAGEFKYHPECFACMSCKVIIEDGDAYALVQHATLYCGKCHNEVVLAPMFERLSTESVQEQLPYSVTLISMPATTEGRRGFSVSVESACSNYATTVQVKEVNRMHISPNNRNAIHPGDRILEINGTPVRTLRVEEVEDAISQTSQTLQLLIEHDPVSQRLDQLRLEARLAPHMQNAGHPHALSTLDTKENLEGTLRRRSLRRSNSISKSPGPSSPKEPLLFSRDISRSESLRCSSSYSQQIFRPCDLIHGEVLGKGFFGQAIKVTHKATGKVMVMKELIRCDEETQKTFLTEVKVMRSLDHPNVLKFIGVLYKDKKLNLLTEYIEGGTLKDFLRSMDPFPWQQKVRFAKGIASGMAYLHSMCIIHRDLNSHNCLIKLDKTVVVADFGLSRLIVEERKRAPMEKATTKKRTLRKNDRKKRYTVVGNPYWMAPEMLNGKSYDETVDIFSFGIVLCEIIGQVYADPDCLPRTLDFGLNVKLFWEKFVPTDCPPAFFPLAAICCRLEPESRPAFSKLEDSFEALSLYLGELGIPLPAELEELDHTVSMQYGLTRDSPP
UniProt Q8IWU2: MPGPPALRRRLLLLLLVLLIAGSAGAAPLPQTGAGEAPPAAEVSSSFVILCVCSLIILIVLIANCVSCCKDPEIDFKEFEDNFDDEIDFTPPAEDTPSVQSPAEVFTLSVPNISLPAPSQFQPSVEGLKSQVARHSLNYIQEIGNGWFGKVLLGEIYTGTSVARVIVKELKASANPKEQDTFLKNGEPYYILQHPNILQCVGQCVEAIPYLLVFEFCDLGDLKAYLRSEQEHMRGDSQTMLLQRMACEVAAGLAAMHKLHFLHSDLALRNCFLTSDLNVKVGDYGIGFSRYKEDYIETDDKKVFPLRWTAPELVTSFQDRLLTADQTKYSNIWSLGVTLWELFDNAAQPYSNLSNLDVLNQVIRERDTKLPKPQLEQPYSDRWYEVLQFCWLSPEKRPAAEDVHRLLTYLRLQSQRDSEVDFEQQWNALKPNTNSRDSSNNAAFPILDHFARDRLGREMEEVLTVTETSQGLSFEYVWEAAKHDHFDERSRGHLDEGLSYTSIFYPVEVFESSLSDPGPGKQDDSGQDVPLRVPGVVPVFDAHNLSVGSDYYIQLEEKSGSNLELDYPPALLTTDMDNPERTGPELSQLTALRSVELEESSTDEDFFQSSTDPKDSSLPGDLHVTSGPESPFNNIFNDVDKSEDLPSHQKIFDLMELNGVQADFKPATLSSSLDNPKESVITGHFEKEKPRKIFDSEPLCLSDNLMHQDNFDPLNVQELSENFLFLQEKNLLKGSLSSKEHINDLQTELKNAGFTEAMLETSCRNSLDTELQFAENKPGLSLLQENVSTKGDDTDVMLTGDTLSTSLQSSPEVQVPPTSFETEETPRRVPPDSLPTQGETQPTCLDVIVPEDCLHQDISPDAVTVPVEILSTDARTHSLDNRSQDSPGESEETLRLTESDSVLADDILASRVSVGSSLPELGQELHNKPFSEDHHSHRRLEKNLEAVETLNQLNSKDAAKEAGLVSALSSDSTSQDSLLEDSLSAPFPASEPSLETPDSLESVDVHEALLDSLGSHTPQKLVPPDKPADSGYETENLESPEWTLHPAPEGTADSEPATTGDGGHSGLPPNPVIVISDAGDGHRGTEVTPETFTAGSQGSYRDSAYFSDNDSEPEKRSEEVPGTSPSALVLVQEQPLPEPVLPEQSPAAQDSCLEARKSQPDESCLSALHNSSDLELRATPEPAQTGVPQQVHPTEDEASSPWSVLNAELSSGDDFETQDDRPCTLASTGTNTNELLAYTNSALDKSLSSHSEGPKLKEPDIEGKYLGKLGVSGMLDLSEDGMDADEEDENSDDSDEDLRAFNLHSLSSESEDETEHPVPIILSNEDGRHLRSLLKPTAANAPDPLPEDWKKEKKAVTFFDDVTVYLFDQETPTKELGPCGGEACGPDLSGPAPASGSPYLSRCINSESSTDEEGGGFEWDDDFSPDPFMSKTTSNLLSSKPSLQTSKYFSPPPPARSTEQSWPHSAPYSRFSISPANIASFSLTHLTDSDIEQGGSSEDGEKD
UniProt P07948: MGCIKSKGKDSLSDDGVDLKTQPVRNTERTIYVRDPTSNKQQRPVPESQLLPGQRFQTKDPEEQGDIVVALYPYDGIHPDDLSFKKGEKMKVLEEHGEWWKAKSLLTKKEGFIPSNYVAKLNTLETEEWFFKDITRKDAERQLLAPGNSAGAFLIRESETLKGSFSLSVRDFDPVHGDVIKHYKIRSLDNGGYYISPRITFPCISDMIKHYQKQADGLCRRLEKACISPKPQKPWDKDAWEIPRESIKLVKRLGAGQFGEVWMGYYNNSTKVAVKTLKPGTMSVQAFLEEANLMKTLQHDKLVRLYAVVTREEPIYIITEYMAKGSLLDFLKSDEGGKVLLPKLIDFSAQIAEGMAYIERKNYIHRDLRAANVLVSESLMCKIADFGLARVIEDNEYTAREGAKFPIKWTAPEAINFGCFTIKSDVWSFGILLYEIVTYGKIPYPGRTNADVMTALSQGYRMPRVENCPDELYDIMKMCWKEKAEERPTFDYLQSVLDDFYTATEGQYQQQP
UniProt Q12851: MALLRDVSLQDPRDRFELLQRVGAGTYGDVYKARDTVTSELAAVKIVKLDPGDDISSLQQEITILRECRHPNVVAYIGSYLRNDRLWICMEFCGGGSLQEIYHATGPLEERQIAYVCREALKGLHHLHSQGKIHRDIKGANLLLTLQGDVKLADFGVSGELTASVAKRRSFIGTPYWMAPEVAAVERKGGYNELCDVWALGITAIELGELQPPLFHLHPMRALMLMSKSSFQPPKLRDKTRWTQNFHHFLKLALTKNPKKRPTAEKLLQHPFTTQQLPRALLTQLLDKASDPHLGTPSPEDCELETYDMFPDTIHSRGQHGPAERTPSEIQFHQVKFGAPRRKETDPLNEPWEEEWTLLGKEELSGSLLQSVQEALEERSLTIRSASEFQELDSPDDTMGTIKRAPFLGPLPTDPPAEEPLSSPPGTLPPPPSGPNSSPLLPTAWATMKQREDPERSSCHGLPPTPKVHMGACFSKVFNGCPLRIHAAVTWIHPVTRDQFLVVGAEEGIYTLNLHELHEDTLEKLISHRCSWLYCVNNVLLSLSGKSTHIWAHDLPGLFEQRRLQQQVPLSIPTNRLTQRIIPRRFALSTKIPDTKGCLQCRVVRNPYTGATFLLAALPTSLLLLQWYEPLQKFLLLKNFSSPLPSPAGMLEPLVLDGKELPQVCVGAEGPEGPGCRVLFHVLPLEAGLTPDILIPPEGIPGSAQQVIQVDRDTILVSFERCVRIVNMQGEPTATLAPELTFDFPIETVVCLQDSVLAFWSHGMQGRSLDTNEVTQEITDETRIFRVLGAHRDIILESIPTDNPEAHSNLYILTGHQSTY

Legend:
Assay in all cases: kinase-Nluc reporter destabilization hit call (1 = scored as downregulated) (binary); higher = compound decreases kinase abundance
Details in all cases: K562, 2-18 h
IRAK3 = IRAK3 (UniProt Q9Y616)
JAK1 = JAK1 (UniProt P23458)
LCK = LCK (UniProt P06239)
LIMK1 = LIMK1 (UniProt P53667)
LIMK2 = LIMK2 (UniProt P53671)
LMTK2 = LMTK2 (UniProt Q8IWU2)
LYN = LYN (UniProt P07948)
MAP2K1 = MAP2K1 (UniProt Q02750)
MAP2K2 = MAP2K2 (UniProt P36507)
MAP4K2 = MAP4K2 (UniProt Q12851)

Measured: kinase-Nluc reporter destabilization hit call

Cn1cc(-c2cnc3ccc4ccc(CS(=O)(=O)NCc5ccccn5)cc4c(=O)c3c2)cn1 [MK-8033 (hydrochloride)]
inactive: IRAK3; 10 µM 0 | JAK1; 10 µM 0 | LCK; 10 µM 0 | LIMK1; 10 µM 0 | LIMK2; 10 µM 0 | LMTK2; 10 µM 0 | LYN; 10 µM 0 | MAP2K1; 10 µM 0 | MAP2K2; 10 µM 0 | MAP4K2; 10 µM 0

CNC(=O)c1cc(Oc2ccc(NC(=O)Nc3ccc(Cl)c(C(F)(F)F)c3)c(F)c2)ccn1 [Regorafenib (monohydrate)]
inactive: IRAK3; 2.5 µM 0 | JAK1; 2.5 µM 0 | LCK; 2.5 µM 0 | LIMK1; 2.5 µM 0 | LIMK2; 2.5 µM 0 | LMTK2; 2.5 µM 0 | LYN; 2.5 µM 0 | MAP2K1; 2.5 µM 0 | MAP2K2; 2.5 µM 0 | MAP4K2; 2.5 µM 0

CCN(CC)CC(=O)Nc1c(C)cccc1C [Lidocaine]
inactive: IRAK3; 10 µM 0 | JAK1; 10 µM 0 | LCK; 10 µM 0 | LIMK1; 10 µM 0 | LIMK2; 10 µM 0 | LMTK2; 10 µM 0 | LYN; 10 µM 0 | MAP2K1; 10 µM 0 | MAP2K2; 10 µM 0 | MAP4K2; 10 µM 0

Cc1ccc(NC(=O)c2ccc(CN3CCN(C)CC3)cc2)cc1Nc1nc(-c2cccnc2)cs1 [Masitinib]
inactive: IRAK3; 2.5 µM 0 | JAK1; 2.5 µM 0 | LCK; 2.5 µM 0 | LIMK1; 2.5 µM 0 | LIMK2; 2.5 µM 0 | LMTK2; 2.5 µM 0 | LYN; 2.5 µM 0 | MAP2K1; 2.5 µM 0 | MAP2K2; 2.5 µM 0 | MAP4K2; 2.5 µM 0

COc1ncc(F)cc1CNc1ccc(Cc2c[nH]c3ncc(C)cc23)c(F)n1 [PLX5622 (hemifumarate)]
inactive: IRAK3; 10 µM 0 | JAK1; 10 µM 0 | LCK; 10 µM 0 | LIMK1; 10 µM 0 | LIMK2; 10 µM 0 | LMTK2; 10 µM 0 | LYN; 10 µM 0 | MAP2K1; 10 µM 0 | MAP2K2; 10 µM 0 | MAP4K2; 10 µM 0

CN(C)C/C=C/C(=O)Nc1cc2c(Nc3ccc(F)c(Cl)c3)ncnc2cc1O[C@H]1CCOC1 [Afatinib (dimaleate)]
inactive: IRAK3; 2.5 µM 0 | JAK1; 2.5 µM 0 | LCK; 2.5 µM 0 | LIMK1; 2.5 µM 0 | LIMK2; 2.5 µM 0 | LMTK2; 2.5 µM 0 | LYN; 2.5 µM 0 | MAP2K1; 2.5 µM 0 | MAP2K2; 2.5 µM 0 | MAP4K2; 2.5 µM 0

CNC(=O)c1ccccc1Nc1cc(Nc2ccc(N3CCOCC3)cc2OC)ncc1C(F)(F)F
inactive: IRAK3; 10 µM 0 | JAK1; 10 µM 0 | LCK; 10 µM 0 | LIMK1; 10 µM 0 | LIMK2; 10 µM 0 | LMTK2; 10 µM 0 | LYN; 10 µM 0 | MAP2K1; 10 µM 0 | MAP2K2; 10 µM 0 | MAP4K2; 10 µM 0

Cc1cc(Nc2ncc(Cl)c(Nc3ccccc3S(=O)(=O)C(C)C)n2)c(OC(C)C)cc1C1CCNCC1 [Ceritinib]
inactive: IRAK3; 2.5 µM 0 | JAK1; 2.5 µM 0 | LCK; 2.5 µM 0 | LIMK1; 2.5 µM 0 | LIMK2; 2.5 µM 0 | LMTK2; 2.5 µM 0 | LYN; 2.5 µM 0 | MAP2K1; 2.5 µM 0 | MAP2K2; 2.5 µM 0 | MAP4K2; 2.5 µM 0

Cc1nc2ccc(-n3c(-c4nonc4N)nc4cnccc43)cc2[nH]1
inactive: IRAK3; 10 µM 0 | JAK1; 10 µM 0 | LCK; 10 µM 0 | LIMK1; 10 µM 0 | LIMK2; 10 µM 0 | LMTK2; 10 µM 0 | LYN; 10 µM 0 | MAP2K1; 10 µM 0 | MAP2K2; 10 µM 0 | MAP4K2; 10 µM 0

C#Cc1cccc(Nc2ncnc3cc(OCCOC)c(OCCO)cc23)c1 [Desmethyl Erlotinib (hydrochloride)]
inactive: IRAK3; 10 µM 0 | JAK1; 10 µM 0 | LCK; 10 µM 0 | LIMK1; 10 µM 0 | LIMK2; 10 µM 0 | LMTK2; 10 µM 0 | LYN; 10 µM 0 | MAP2K1; 10 µM 0 | MAP2K2; 10 µM 0 | MAP4K2; 10 µM 0

Oc1cccc(-c2nc(N3CCOCC3)c3oc4ncccc4c3n2)c1
inactive: IRAK3; 10 µM 0 | JAK1; 10 µM 0 | LCK; 10 µM 0 | LIMK1; 10 µM 0 | LIMK2; 10 µM 0 | LMTK2; 10 µM 0 | LYN; 10 µM 0 | MAP2K1; 10 µM 0 | MAP2K2; 10 µM 0 | MAP4K2; 10 µM 0

C[C@H](CCC(=O)NCCS(=O)(=O)O)[C@H]1CC[C@H]2[C@@H]3[C@@H](O)C[C@@H]4C[C@H](O)CC[C@]4(C)[C@H]3CC[C@]12C [Tauroursodeoxycholate (sodium)]
inactive: IRAK3; 10 µM 0 | JAK1; 10 µM 0 | LCK; 10 µM 0 | LIMK1; 10 µM 0 | LIMK2; 10 µM 0 | LMTK2; 10 µM 0 | LYN; 10 µM 0 | MAP2K1; 10 µM 0 | MAP2K2; 10 µM 0 | MAP4K2; 10 µM 0

Cc1cccc(-c2[nH]c(CNc3ccccc3F)nc2-c2ccc3ncnn3c2)n1 [Vactosertib]
inactive: IRAK3; 2.5 µM 0 | JAK1; 2.5 µM 0 | LCK; 2.5 µM 0 | LIMK1; 2.5 µM 0 | LIMK2; 2.5 µM 0 | LMTK2; 2.5 µM 0 | LYN; 2.5 µM 0 | MAP2K1; 2.5 µM 0 | MAP2K2; 2.5 µM 0 | MAP4K2; 2.5 µM 0

COc1ccc(S(=O)(=O)Nc2ccccc2CN(C)C/C=C/c2ccc(Cl)cc2)cc1 [KN-92 (hydrochloride)]
inactive: IRAK3; 2.5 µM 0 | JAK1; 2.5 µM 0 | LCK; 2.5 µM 0 | LIMK1; 2.5 µM 0 | LIMK2; 2.5 µM 0 | LMTK2; 2.5 µM 0 | LYN; 2.5 µM 0 | MAP2K1; 2.5 µM 0 | MAP2K2; 2.5 µM 0 | MAP4K2; 2.5 µM 0

Cn1cc(-c2cnc3ccc4ccc(CS(=O)(=O)NCc5ccccn5)cc4c(=O)c3c2)cn1
inactive: IRAK3; 10 µM 0 | JAK1; 10 µM 0 | LCK; 10 µM 0 | LIMK1; 10 µM 0 | LIMK2; 10 µM 0 | LMTK2; 10 µM 0 | LYN; 10 µM 0 | MAP2K1; 10 µM 0 | MAP2K2; 10 µM 0 | MAP4K2; 10 µM 0

C#Cc1cccc(Nc2ncnc3cc4c(cc23)OCCOCCOCCO4)c1 [Icotinib (Hydrochloride)]
inactive: IRAK3; 10 µM 0 | JAK1; 10 µM 0 | LCK; 10 µM 0 | LIMK1; 10 µM 0 | LIMK2; 10 µM 0 | LMTK2; 10 µM 0 | LYN; 10 µM 0 | MAP2K1; 10 µM 0 | MAP2K2; 10 µM 0 | MAP4K2; 10 µM 0

CN(C)C(=O)c1cc2cnc(Nc3ccc(N4CCNCC4)cn3)nc2n1C1CCCC1 [Ribociclib succinate hydrate]
inactive: IRAK3; 2.5 µM 0 | JAK1; 2.5 µM 0 | LCK; 2.5 µM 0 | LIMK1; 2.5 µM 0 | LIMK2; 2.5 µM 0 | LMTK2; 2.5 µM 0 | LYN; 2.5 µM 0 | MAP2K1; 2.5 µM 0 | MAP2K2; 2.5 µM 0 | MAP4K2; 2.5 µM 0

COc1ncc(F)cc1CNc1ccc(Cc2c[nH]c3ncc(C)cc23)c(F)n1
inactive: IRAK3; 10 µM 0 | JAK1; 10 µM 0 | LCK; 10 µM 0 | LIMK1; 10 µM 0 | LIMK2; 10 µM 0 | LMTK2; 10 µM 0 | LYN; 10 µM 0 | MAP2K1; 10 µM 0 | MAP2K2; 10 µM 0 | MAP4K2; 10 µM 0
